# Assay results

Data taken from PubChem BioAssay AID1919869, deposited by NCATS (2023).

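Survival of the PE2_PLB multiple myeloma cell line after 48 hours of drug exposure, measured by ATP-dependent luminescence. Each drug was tested as a dilution series, mostly reaching 45.8 µM at the top. The number is the fitted AC50 for cell killing; a lower value means a more potent drug. Calls come from curve class and an activity score: actives score 40–100, inconclusives 1–39 (weak, partial, poorly fitted or top-dose-only curves), inactives score 0.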

Values are in µM. All entries here are filed as inconclusive. Only part of the assay is shown, chiefly results filed as inconclusive. Potencies fitted to partial, single-point or poorly fitting curves are rough. Some entries filed as inconclusive have a full curve. Activity scores are not listed here.

CCCCOc1ccc(CC(=O)NO)cc1 read potency 33.17 µM (cytotoxic, single point).
O=C(O)C1(Cc2cccc(Nc3nccs3)n2)CCC(Oc2cccc(Cl)c2F)CC1 (centres unmarked) read potency 0.1482 µM (cytotoxic, full curve, poor fit).
COc1ccc([C@@H]2CNC(=O)C2)cc1OC1CCCC1 read potency 18.65 µM (cytotoxic, partial curve).
N=c1nc(N2CCCCC2)cc(N)n1O read potency 33.17 µM (cytotoxic, single point).
NC(=O)c1cccc2cn(-c3ccc([C@@H]4CCCNC4)cc3)nc12 read potency 37.22 µM (cytotoxic, single point).
CNC(=O)CN1CCC(Oc2cc3c(Nc4cccc(Cl)c4F)ncnc3cc2OC)CC1 read potency 0.0235 µM (cytotoxic, full curve).
N#Cc1ccc(COC[C@H]2O[C@@H](n3c(NCc4ccc(Cl)c(Cl)c4)nc4c(N)ncnc43)[C@@H](O)[C@@H]2O)cc1 read potency 13.21 µM (cytotoxic, partial curve).
O=c1ccn([C@@H]2O[C@H](CO)[C@H](O)[C@@H]2F)c(=O)[nH]1 read potency 8.333 µM (cytotoxic, single point).
c1ccc2c(CN3CCNCC3)cccc2c1 read potency 0.001 µM (cytotoxic).
O=S(=O)(c1cccc2cnccc12)N1CCCNCC1 read potency 20.93 µM (cytotoxic, single point).
CC1(C)CNc2cc(NC(=O)c3cccnc3NCc3ccncc3)ccc21 read potency 3.317 µM (cytotoxic, full curve, poor fit).
COC(=O)Nc1nc2ccc(C(=O)c3ccc(F)cc3)cc2[nH]1 read potency 0.4176 µM (cytotoxic, full curve).
COc1cc2nccc(Oc3ccc(NC(=O)C4(C(=O)Nc5ccc(F)cc5)CC4)cc3)c2cc1OC read potency 20.93 µM (cytotoxic, partial curve).
CCN(CC)CCCCNc1ncc2c(n1)N(C)C(=O)N(c1c(Cl)c(OC)cc(OC)c1Cl)C2 read potency 20.93 µM (cytotoxic, single point).
CCS(=O)(=O)N1CC(CC#N)(n2cc(-c3ncnc4[nH]ccc34)cn2)C1 read potency 0.935 µM (cytotoxic, full curve).
CC(=O)OCC(=O)[C@@]12OC(C)(C)O[C@H]1C[C@H]1[C@@H]3C[C@H](F)C4=CC(=O)C=C[C@]4(C)[C@@]3(F)[C@@H](O)C[C@@]12C read potency 3.317 µM (cytotoxic, partial curve, poor fit).
Cc1c(Cn2c(C)nc3c(C(=O)O)cc(N4CCOCC4)cc32)cccc1C(F)(F)F read potency 6.619 µM (cytotoxic, full curve).
CN(C)CCc1c[nH]c2ccc(CS(=O)(=O)N3CCCC3)cc12 read potency 16.63 µM (cytotoxic, partial curve, poor fit).

Once more, the final 2:

{"smiles": "Cc1c(Cn2c(C)nc3c(C(=O)O)cc(N4CCOCC4)cc32)cccc1C(F)(F)F", "potency (µM)": "6.619", "remark": "cytotoxic, full curve"}
{"smiles": "CN(C)CCc1c[nH]c2ccc(CS(=O)(=O)N3CCCC3)cc12", "potency (µM)": "16.63", "remark": "cytotoxic, partial curve, poor fit"}